Measured values taken from paper PMC12040169 (PLOS Biology, 2025).
This is one part of the list.

system: T1, CTL2-GFP (C. trachomatis L2/434/Bu, GFP-expressing); set-up: species or system HeLa; Intracellular C. trachomatis growth in HeLa cells, bulk GFP fluorescence relative to DMSO; conditions: bulk GFP, single well; 28.5 h, 10 µM; inhibitor
T1 construct: L2/434/Bu, GFP-expressing

Compound | % of control remaining [%]
Cc1csc(NC(=O)CSc2nnc3[nH]c(=O)cc(C)n23)n1 [CBK294413] | 148.522
O=C1NC(=O)C(CCCCN2CCC[C@@H]2CN2CCCC2)N1 (stereo partly drawn) [CBK149110] | 106.443
O=C(O)CCNC1CC(=O)N(Cc2ccccc2)C1=O (stereo not drawn) [CBK287246] | 129.2
CC(C)C(=O)Nc1ccc2c(-c3ccc4c(c3)CCO4)ccnc2n1 [CBK073672] | 158.3
O=C(O)C1Cc2c([nH]c3ccccc23)C(c2cc(Br)ccc2O)N1 (stereo not drawn) [CBK260946] | 111.731
COc1cc(NC(=O)N2CCCCC2CO)cc(OC)c1OC (stereo not drawn) [CBK155986] | 78.4722
Cc1csc(NC(=O)c2cccc(S(=O)(=O)NCC3CCCO3)c2)n1 (stereo not drawn) [CBK305017] | 114.447
CN(CC(=O)N1CCC(Cc2ccccc2)CC1)S(=O)(=O)c1ccc2ccccc2c1 [CBK266931] | 145.205
CCN(CC)C(=O)c1sc2ccccc2c1Cl [CBK067853] | 93.3446
C/C(=N/O)c1ccc(OCCCOc2ccc(/C(C)=N/O)cc2)cc1 [CBK262075] | 104.153
COc1ccc(-c2ccccc2)cc1NS(=O)(=O)c1ccc2c(c1)CCC(=O)N2 [CBK286368] | 96.3887
CC(C)(C)C(=O)N1CCC(n2nc(-c3cccs3)oc2=O)CC1 [CBK282423] | 113.756
Brc1ccc2[nH]c3c(c2c1)CCNC31CCN(CCOc2ccccc2)C1 (stereo not drawn) [CBK083578] | 81.0254
CC(C)NC(=O)N1CCC[C@@H](O)[C@H](NC(=O)c2ccc(OCc3ccccc3)cc2)C1 [CBK289063] | 101.864
O=c1scnn1Cc1nc(-c2ccsc2)no1 [CBK306438] | 126.311
Clc1cccc(Cl)c1CN(Cc1ccccc1)c1ncnc2[nH]cnc12 [CBK266571] | 118.273
COc1ccc(C(NC(=O)C2CCN(C(=O)OC(C)C)CC2)c2ccccc2C)cn1 (stereo not drawn) [CBK059704] | 93.1739
CC(C)[C@H]1CN(Cc2cc(C#N)n(C)c2)C[C@@H]1NC(=O)C1CCC1 [CBK306832] | 87.0775
O=C(O)C1CCN(c2ncnc3scc(-c4ccccc4)c23)CC1 [CBK076784] | 105.572
CNS(=O)(=O)c1cccc2c1CCN(C(=O)NC1CCOC1)C2 (stereo not drawn) [CBK306172] | 98.9425
CN(C)CCN1CCN(c2cncc(-c3cccnc3)n2)CC1 [CBK065416] | 132.665
Cc1ccc(C2=NN(C(=O)CNc3cc(F)cc(F)c3)C(c3ccco3)C2)cc1 (stereo not drawn) [CBK297922] | 115.165
O=C(/C=C\c1ccc(Cl)cc1Cl)N1CCN(Cc2ccc3c(c2)OCO3)CC1 [CBK074371] | 54.6233
O=C(c1ccccc1)N1C[C@H](c2ccsc2)[C@H]2CN(Cc3ccsc3)CC[C@H]21 [CBK285604] | 77.2973
O=C(O)c1ccc(-c2ccc(/C=C/c3[nH]c(=O)[nH]c(=O)c3[N+](=O)[O-])o2)cc1 [CBK268055] | 121.251
CC(=O)Nc1cccc(C(=O)OCC(=O)c2cccs2)c1 [CBK306040] | 85.3096

Compound | % of control remaining [%]
COc1ccc(OCCCn2ccn(C(=O)CCCOc3ccc(Cl)cc3)c2=O)cc1 [CBK106662] | 137.216
CC1(C)CC(=O)C(=CNCC(N)=O)C(=O)C1 [CBK262520] | 100
COc1ccc(C(=O)N2CCC3(CCN(Cc4cc(OC)c(OC)c(OC)c4)C3)C2)cc1OC (stereo not drawn) [CBK132149] | 127.86
CCCn1ccnc1CN1CCCC(CC2CC2)(C(=O)O)C1 (stereo not drawn) [CBK307205] | 80.5868
O=C(COc1cccc2ccccc12)NNC(=O)Cc1ccc(Cl)cc1 [CBK262988] | 98.2607
Cc1nc[nH]c1CN(CCCn1ccnc1)CC1CC=CCC1 (stereo not drawn) [CBK283218] | 130.944
COC(=O)c1ccc(Nc2cccc(-c3cccc(N)c3)n2)cc1OC [CBK037619] | 105.072
O=C(O)c1cc(S(=O)(=O)NCc2ccccc2)ccc1Br [CBK261768] | 107.317
CCCc1[nH]nc(O)c1Cc1cccc(C)c1 [CBK075035] | 100.348
Fc1ccc(-c2cn3ccnc3c(Nc3cccc(OC(F)(F)C(F)F)c3)n2)cc1Cl [CBK037265] | 132.835
Cc1cnc(C)c(N2CCN(c3cc([C@H]4C[C@@H](N)C4)ncn3)CC2)n1 [CBK307118] | 126.183
Cc1cc(CNC(=O)Cn2nc(C)c(C)c2C)on1 [CBK281487] | 90.8839
CC(=O)N1CCC[C@H]2NC(=O)CNC(=O)C3(C/C=C/C[C@H]21)CCN(C(=O)C1CCC1)CC3 [CBK292177] | 101.151
OCCN1CSC(=S)N(CCc2ccc(Cl)cc2)C1 [CBK015713] | 120.219
Cn1c(SCc2ccc([N+](=O)[O-])cc2)nnc1-c1ccc(NC(=O)c2ccccc2Cl)cc1 [CBK265001] | 122.288
O=C(O)c1ccccc1S(=O)(=O)CC(=O)N1CCCCC1 [CBK287180] | 91.1111
Cc1ccc(C2CCCN2C(=O)Cn2cccc(C(=O)NCc3ccccc3)c2=O)cc1C (stereo not drawn) [CBK286074] | 110.527
c1ccc2c(CCN3CCC(Oc4nccnc4OC4CCCCC4)CC3)c[nH]c2c1 [CBK082877T] | 110.372
CC(C)(C)CC(=O)O/N=C(\N)c1ccccn1 [CBK265779] | 120.031
Cc1cc2ccccc2n2c(=O)n(CC(=O)N3CCCCC3C)nc12 (stereo not drawn) [CBK283882] | 119.386
COc1ccc(-c2cc(C(=O)Nc3ccccn3)cnc2-c2ccccc2)cn1 [CBK037519] | 139.468
COc1ccc2c(c1)C1(CC(=O)N(Cc3ccccc3)C1=O)C(=O)N2CCn1cnc2c1c(=O)n(C)c(=O)n2C (stereo not drawn) [CBK075478] | 97.4105
COCCNc1cccc(Cn2c(=O)n(C)c3c2c(=O)nc(OC)n3C)c1 [CBK022052] | 107.246
FC(F)(F)c1nnc2ccc(N3CCN(Cc4ccsc4)CC3)nn12 [CBK305930] | 101.826
O=C(Nc1ccc(Cc2ccncc2)cc1)c1cc([N+](=O)[O-])n[nH]1 [CBK269157] | 124.304
O=C(O)/C=C\C(=O)Nc1cccc(NC(=O)c2cccs2)c1 [CBK263952] | 100

Compound | % of control remaining [%]
CCn1c2cc(C)oc2c2cnn(CC(=O)N(C)C)c(=O)c21 [CBK284224] | 127.566
Cc1nc(-c2ccccc2)sc1CNC(=O)C(C)c1ccc([N+](=O)[O-])cc1 (stereo not drawn) [CBK092364] | 71.7798
Cn1cccc1CN1C[C@H]2CC[C@]3(NC(=O)c4ccccc4N3)[C@H]2C1 [CBK284443] | 124.697
O=C(c1cccc(C(=O)N(Cc2ccccc2)c2ccccn2)c1)N(Cc1ccccc1)c1ccccn1 [CBK091794] | 91.6111
Cc1ccc(NC(=O)c2ccccc2)s1 [CBK086724] | 105.564
Cc1cc(C)nc(NS(=O)(=O)c2ccc(OC(F)(F)F)cc2)c1 [CBK044711] | 135.111
CCC(CC)C(=O)Nc1nc(OC)cnc1-c1ccc(OCOC)cc1 [CBK145207] | 101.757
c1ccc(Nc2cncc(N3CCNCC3)n2)cc1 [CBK013389] | 90.94
COc1ccc(N2CCN(/C(=N\S(=O)(=O)c3ccc(C)cc3)Nc3nc(C)cc(C)n3)CC2)cc1 [CBK266564] | 142.788
Cn1cc(C(=O)N2CCCC3(C/C=C/COc4ccccc4C(=O)NCCNC3=O)C2)cn1 (stereo not drawn) [CBK292102] | 146.865
Cn1nc(C2CC2)cc1C(=O)NCCN1CCc2ccccc21 [CBK282138] | 106.8
Cc1nc(=O)c(-c2ccccc2)c(C)n1CCCCCC(=O)O [CBK287060] | 117.744
O=C(Cn1cccc(C(=O)NC2CCCCC2)c1=O)NCC1(c2ccccc2Cl)CC1 [CBK286054] | 142.743
COC[C@@H]1CCCN1S(=O)(=O)c1cccs1 [CBK045239] | 150.776
CCN(C(=O)c1cnc2n(c1=O)CCS2)c1ccccc1 [CBK287384] | 106.651
OCC1CCN(Cc2cnn(C3CCCCC3)c2)C1 (stereo not drawn) [CBK283086] | 137.608
O=C(Cn1ccc2ccnc(-c3cccs3)c21)N1CCNCC1 [CBK284733] | 127.321
Cc1nn(-c2ccccc2)c2sncc12 [CBK006869] | 92.4224
CCCC/C=C/c1cn2ccnc2c(Nc2ccc(OC)nc2)n1 [CBK038089] | 156.473
Cc1nc2c(C(=O)NCCOCCO)cnn2c(C)c1Cc1ccc(F)c(Cl)c1 [CBK167457] | 78.3793
CCCc1c(O)n[nH]c1Cc1ccc(Cl)cc1 [CBK078564] | 96.641
Cc1cc(Br)c(NCC(=O)N/N=C/c2ccc(O)cc2)c(Br)c1 [CBK263506] | 63.2727
O=C(C1CC1)N1C2CCC1Cn1c(nc3ccccc3c1=O)C2 (stereo not drawn) [CBK284451] | 119.289
COc1ccc(-c2n[nH]c(=S)n2CC(=O)Nc2nc(-c3ccc(C)cc3C)cs2)cc1 [CBK295316] | 104.744
Cc1cc(NC(=O)c2cncnc2)c2ccccc2n1 [CBK122734] | 86.2983
Cc1nc2c(c(=O)[nH]1)CN(Cc1ccc(Cl)c(Cl)c1)CC2 [CBK283949] | 147.986

5 records drawn at random from the list so far, as already listed:
Compound | % of control remaining [%]
O=C(/C=C\c1ccc(Cl)cc1Cl)N1CCN(Cc2ccc3c(c2)OCO3)CC1 [CBK074371] | 54.6233
Cc1cc(C)nc(NS(=O)(=O)c2ccc(OC(F)(F)F)cc2)c1 [CBK044711] | 135.111
Cc1ccc(NC(=O)c2ccccc2)s1 [CBK086724] | 105.564
CN(C)CCN1CCN(c2cncc(-c3cccnc3)n2)CC1 [CBK065416] | 132.665
O=C(C1CC1)N1C2CCC1Cn1c(nc3ccccc3c1=O)C2 (stereo not drawn) [CBK284451] | 119.289
